Assay results taken from PubChem BioAssay AID1671190 (National Center for Advancing Translational Sciences (NCATS), 2021).
Where “and” joins values, the source holds several entries; their conditions need not be identical. Equal values may be shown once. The whole screen tested about 580,000 compounds, of which about 6,100 (1.1%) were called active. This list was built around the results that the source calls inconclusive (neither active nor inactive); the mix of calls is not that of the screen. Calls come from the whole dose curve; as a rule, active = well fitted inhibition curve with a large enough effect; inconclusive = small, poorly fitted or top-dose-only effect, or another doubt; inactive = no such curve, though single readings can be large or run the other way. A potency beside an inconclusive call is a rough fit, not a confirmed value.

Protein sequences, listed by entry. Tags and fused reporters are not part of them. Lines headed by an entry give the natural chain unless they say otherwise; changes in a name come on top.
UniProt P18054: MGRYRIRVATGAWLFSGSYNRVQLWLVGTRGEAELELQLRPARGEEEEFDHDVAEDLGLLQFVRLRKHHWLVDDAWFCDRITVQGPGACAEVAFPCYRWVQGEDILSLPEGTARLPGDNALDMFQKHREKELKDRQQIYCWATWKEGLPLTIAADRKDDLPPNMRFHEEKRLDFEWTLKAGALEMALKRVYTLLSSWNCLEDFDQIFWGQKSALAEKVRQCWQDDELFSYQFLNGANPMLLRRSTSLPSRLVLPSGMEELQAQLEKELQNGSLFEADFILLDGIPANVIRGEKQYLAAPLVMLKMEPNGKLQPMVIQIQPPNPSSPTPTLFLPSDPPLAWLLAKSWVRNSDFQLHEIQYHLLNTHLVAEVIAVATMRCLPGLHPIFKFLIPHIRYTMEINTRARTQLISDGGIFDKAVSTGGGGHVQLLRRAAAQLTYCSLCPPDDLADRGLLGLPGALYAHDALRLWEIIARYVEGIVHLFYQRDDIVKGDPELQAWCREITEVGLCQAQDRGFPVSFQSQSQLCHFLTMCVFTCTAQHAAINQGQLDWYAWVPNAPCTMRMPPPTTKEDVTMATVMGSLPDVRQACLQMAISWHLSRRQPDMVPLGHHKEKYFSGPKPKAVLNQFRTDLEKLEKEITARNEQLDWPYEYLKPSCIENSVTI

What follows are compounds tested against Polyunsaturated fatty acid lipoxygenase ALOX12 (Homo sapiens) (UniProt P18054) (assay: Primary qHTS assay for inhibitors of human arachidonate 12S-lipoxygenase (ALOX12): Round 2). Conditions: purified 12hLO, xylenol orange hydroperoxide absorbance; activity change, negative = inhibition: at 108 µM (top of the series) unless noted.
Method in brief: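 Hydroperoxide product was detected by ferrous iron/xylenol orange as the 573 to 405 nm absorbance ratio. Arachidonic acid at 40 uM (final) was turned over for 30 min at room temperature by 150 nM human 12hLO, pH 7.0 Hepes buffer, after 15 min compound preincubation.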
% is set by controls: 0 for no effect and ±100 for the full control effect; potency is the fitted concentration of half-maximal effect.

| Compound | activity change, negative = inhibition | Potency |
| --- | --- | --- |
| O=C(O)CCc1cccc(Cl)c1 | inactive: 1.56% |  |
| COc1cccc2cc(C(=O)C3=C(O)C(=O)N(CCN4CCOCC4)C3c3ccc(C)o3)oc12 (centres undefined) |  | inconclusive: 70.8 µM [inhibitor, partial curve, poor fit] |
| O=C1C(c2c(O)[nH]c3ccccc23)=Nc2ccccc21 |  | inconclusive: 19.3 µM [inhibitor, single point] |
| Cc1ccccc1-c1cc(C(=O)NCc2ccco2)n(CC2CC(c3cccnc3)=NO2)n1 (centres undefined) |  | inconclusive: 100 µM [inhibitor, single point] |
| O=C1CSC(=Nc2ccccc2)N1Cc1ccccc1 | inactive: -6.11% |  |
| COCCNC(=O)[C@H]1C[C@H](Oc2cccnc2)CN1C(=O)c1cccc(OC)c1 | inactive: 41.6% |  |
| Clc1ccc(NN=C2c3ccccc3-c3ccccc32)cc1 |  | inconclusive: 14.1 µM [inhibitor, full curve] |
| O=C(C[C@@H]1CCNC[C@@H]1Cc1cc(CSc2ccccc2)on1)NC1CCCCC1 |  | inconclusive: 35.5 µM [inhibitor, partial curve, poor fit] |
| CCc1nc(C)ccc1OCC(=O)N1CCCn2nc(C(C)O)cc2C1 (centres undefined) | inactive: 41.9% |  |
| O=C(Cn1c(=O)n(C2=CCCCC2)c2ccccc21)NCc1nnc2n1CCCCC2 |  | inconclusive: 5.01 µM [inhibitor, single point] |
| CC1=C[C@@H](CNC(=O)Cn2cnnn2)[C@H](C(C)C)C[C@H]1Cc1nc2ccccc2n1C | inactive: 10.2% [at 176 µM] |  |
| CCOc1ccc(NC(=O)CC2C(=O)N(c3ccccc3)C(=O)N2Cc2cccc(OC)c2)cc1 (centres undefined) | inconclusive: -36.3% [inhibitor] |  |
| Cc1cc(C)cc(NC(=O)CCCn2c(=O)c3cccn3c3ccccc32)c1 | inactive: -9.3% |  |
| COc1ccc(-c2nc(C3CC3)nc3c2CCN(CC2CCCCC2)CC3)cc1 |  | inconclusive: 15.8 µM [inhibitor, full curve] |
| CC1(C(=O)NS(=O)(=O)c2cccc(F)c2)CCN1C(=O)CCc1ccc(Cl)cc1Cl (centres undefined) |  | inconclusive: 44.7 µM [inhibitor, partial curve, poor fit] |
| O=C(COc1ccccc1[N+](=O)[O-])N1CCC(c2nc3ccccc3o2)CC1 | inconclusive: -33.6% [inhibitor] |  |
| Nc1ncnc2c1ncn2CCOc1ccccc1 |  | inconclusive: 35.5 µM [inhibitor, partial curve, poor fit] |
| C#CCN(C[C@@H]1[C@@H](OC(=O)NCC2CCCCC2)[C@@H](OC(=O)NCC2CCCCC2)Cn2c(=O)n(CCCCCC)c(=O)n21)S(=O)(=O)c1ccc(C)cc1 |  | inconclusive: 31.6 µM [inhibitor, single point] |
| Cc1cccc(C(=O)N2CCC(c3n[nH]c(=O)n3Cc3ccc(F)cc3)CC2)c1 |  | inconclusive: 15.8 µM [inhibitor, full curve] |
| COCCn1nnnc1C(c1ccc(C)cc1)N1CCN(Cc2ccc3c(c2)OCO3)CC1 (centres undefined) | inactive: 0% |  |
| CCNc1ncc2nc(CCc3ccccc3)c(=O)n(C3CC3)c2n1 |  | inconclusive: 112 µM [inhibitor, single point] |
| CCCCCCCn1ccc(O)c(CC(=O)OC)c1=O | inactive: 0.413% |  |
| CC(=O)c1ccc(C(=O)N2CCN(C(c3ccc(F)cc3)c3ccc(F)cc3)CC2)s1 | inactive: 1.35% |  |

| Compound | activity change, negative = inhibition | Potency |
| --- | --- | --- |
| Cc1cc(C)cc(NC(=O)c2cc(C)nc3ccccc23)c1 |  | inconclusive: 39.8 µM [inhibitor, single point] |
| CCOC(=O)C(NC(=O)/C=C/c1ccc(C(N)=O)cc1)C(C)C (centres undefined) | inactive: 13.8% |  |
| CCN1CCN(C(=O)c2cc3cc(Cl)cc(Cl)c3oc2=O)CC1 | inactive: -0.253% |  |
| Cc1ccccc1NC(=O)CSc1cccs1 |  | inconclusive: 25.1 µM [inhibitor, partial curve] |
| CCN1CCC2(CC1)Oc1c(OC)cccc1C1CC(c3ccc4c(c3)OCCO4)=NN12 (centres undefined) |  | inconclusive: 50.1 µM [inhibitor, partial curve, poor fit] |
| COC1=CC(=O)C(C2CC(=O)c3c(O)cc(O)cc3O2)=CC1=O (centres undefined) |  | inconclusive: 5.62 µM [inhibitor, full curve] |
| Cc1ccc(NC(=O)c2c(C)oc3ccc(O)c(CN4CCCCCC4)c23)cc1 |  | inconclusive: 112 µM [inhibitor, partial curve, poor fit] |
| CC[C@H](CO)Oc1cc(NCc2cccc(N)c2)c2ncn(C(C)C)c2c1 |  | inconclusive: 89.1 µM [inhibitor, single point] |
| O=C(O)C(Cc1ccccc1)N1C(=O)/C(=C/C=C/c2ccco2)SC1=S (centres undefined) |  | active: 5.62 µM |
| CNC(=O)c1[nH]cnc1C(=O)Nc1ccc(F)cc1 |  | inconclusive: 44.7 µM [inhibitor, single point] |
| Cc1c(C(=O)Nc2ccccn2)oc2ccc(Br)cc12 |  | inconclusive: 112 µM [inhibitor, single point] |
| CC(=O)N1CCCc2cc(S(=O)(=O)NCc3ccc(C)cc3)ccc21 | inactive: -6.79% |  |
| Cc1nc(C)c(C(=O)OCC(=O)N(C)c2ccccc2)s1 |  | inconclusive: 89.1 µM [inhibitor, single point] |
| CCCCC1=CC2=CC(=O)C(C)(OC(=O)CC)C(=O)C2=CN1c1ccc(OC)cc1 (centres undefined) | inactive: 207% |  |
| CCN(CCCNC(=O)c1cc(Nc2ccc(OC)cc2OC)nc2ccccc12)c1cccc(C)c1 |  | inconclusive: 63.1 µM [inhibitor, partial curve, poor fit] |
| O=C(NC1CCCCC1)[C@@H]1C[C@@H](O)CN1C1CCN(C(=O)c2cccs2)CC1 | inactive: 23.2% |  |
| O=[N+]([O-])c1ccc(-n2ccc3ccccc32)cc1 |  | inconclusive: 50.1 µM [inhibitor, partial curve, poor fit] |
| CSc1ccc(/C=C/c2cc(=O)c3ccccc3[nH]2)cc1 |  | inconclusive: 112 µM [inhibitor, single point] |
| Cn1nc2n(c1=O)CCC(N)CC2 (centres undefined) | inactive: 2.97% |  |
| CC(C)=CCc1cc([C@@H]2COc3c(ccc4c3C=CC(C)(C)O4)C2)c(O)cc1O |  | inconclusive: 126 µM [inhibitor, single point] |
| O=C(NC1C2CC3CC(C2)CC1C3)c1cc(-c2cccnc2)nc2ccc(Cl)cc12 (centres undefined) | inactive: -6.56% |  |
| Cc1cc2nc(SCCOC(=O)Nc3ccccc3)nc(C)c2cc1C | inactive: -17.6% |  |
| C=CCN1C(=O)S/C(=C/c2cn(CC(=O)O)c3ccccc23)C1=O |  | active: 31.6 µM |

2 neighbouring records already listed, quoted:

| Compound | activity change, negative = inhibition | Potency |
| --- | --- | --- |
| O=C(C[C@@H]1CCNC[C@@H]1Cc1cc(CSc2ccccc2)on1)NC1CCCCC1 |  | inconclusive: 35.5 µM [inhibitor, partial curve, poor fit] |
| CCc1nc(C)ccc1OCC(=O)N1CCCn2nc(C(C)O)cc2C1 (centres undefined) | inactive: 41.9% |  |

Going on with the list.

| Compound | activity change, negative = inhibition | Potency |
| --- | --- | --- |
| CCOC(=O)Nc1ccc2c(c1)N(C(=O)N1CCN(C)CC1)c1ccccc1CC2 | inactive: -5.83% |  |
| C[S+](=O)([O-])c1cccc(-c2nccc3c(=O)cc(N4CCOCC4)oc23)c1 |  | active: 56.2 µM |
| O=C(NC(=S)NCc1ccccc1)c1ccccc1F |  | inconclusive: 44.7 µM [inhibitor, partial curve, poor fit] |
| COc1ccc(-c2cc(C(=O)Nc3cc(C)on3)no2)cc1OC | inactive: 4.35% |  |
| COc1ccc(-c2onc(C)c2C)cc1S(=O)(=O)N1CCN(c2ccc(Cl)cc2)CC1 | inactive: -6.3% |  |
| Cn1c(=O)n(C)c2cc(NC(=O)CSc3nnc(-c4ccccc4O)n3-c3ccccc3)ccc21 | inactive: 16.7% |  |
| c1ccc(Cc2nc3ccccc3s2)cc1 |  | inconclusive: 50.1 µM [inhibitor, partial curve, poor fit] |
| CN(C)C(CNS(=O)(=O)c1ccc2ccccc2c1)c1ccccc1 (centres undefined) |  | inconclusive: 25.1 µM [inhibitor, partial curve, poor fit] |
| NS(=O)(=O)c1ccc(NC(=S)Nc2ccc(C(=O)N3CCCCC3)cc2)cc1 |  | inconclusive: 44.7 µM [inhibitor, partial curve, poor fit] |
| CC(C)(C)CNC(=O)c1nc[nH]c1C(=O)N1CCOCC1 |  | inconclusive: 100 µM [inhibitor, partial curve, poor fit] |
| O=C(O)c1cc(Nc2nc(-c3ccccc3)cs2)ccc1O |  | inconclusive: 20 µM [inhibitor, partial curve, poor fit] |
| CC(CNC(=O)C1CCN(S(=O)(=O)c2ccc3c(ccn3C)c2)CC1)c1ccccc1 (centres undefined) |  | inconclusive: 8.91 µM [inhibitor, full curve, poor fit] |
| O=C(CSc1nc2c([nH]c3ccccc32)c(=O)n1-c1ccccc1)N1CCOCC1 |  | inconclusive: 100 µM [inhibitor, partial curve, poor fit] and inconclusive: 89.1 µM [inhibitor, single point] |
| COC(=O)C1=C(C)OC(N)=C(C#N)C1c1ccccc1C(F)(F)F (centres undefined) |  | inconclusive: 7.08 µM [inhibitor, partial curve, poor fit] |
| CC(C)OC(=O)c1c(NC(=O)COc2cccc(Br)c2)sc2c1CCCC2 |  | inconclusive: 2 µM [inhibitor, full curve, poor fit] |
| Cc1cc(C)nc(SCC(=O)Nc2ccnc3ccccc23)n1 | inactive: -3.16% |  |
| COc1cc(/C=N/NC(=S)NCCc2ccccc2)cc(OC)c1OC | inactive: 0% |  |
| Cc1cccc(N=C2NC(=O)/C(=C/C=C/c3ccco3)S2)c1C |  | active: 10 µM |
| CCN1C(=O)C(CC(=O)Nc2ccc(OC)cc2)N(Cc2ccc3c(c2)OCO3)C1=S (centres undefined) |  | inconclusive: 63.1 µM [inhibitor, partial curve, poor fit] |
| Cc1noc(C)c1-c1cc2c(cc(C)n2CCN(C)C)c(-c2ccnn2C)n1 |  | inconclusive: 112 µM [inhibitor, partial curve] |
| COc1ccc(-c2coc3cc(O)ccc3c2=O)cc1 |  | inconclusive: 17.8 µM [inhibitor, partial curve, poor fit] |
| CCCCCn1c(=O)[nH]c2cc(C(=O)NCCc3ccc(OC)c(OC)c3)ccc2c1=O | inactive: 54% |  |
| CCN(CC)CCn1c(-c2ccccc2)csc1=Nc1ccccc1 |  | inconclusive: 10 µM [inhibitor, partial curve, poor fit] |

Full records from above.
`O=C(NC(=S)NCc1ccccc1)c1ccccc1F` in the list: Potency: inconclusive: 44.7 µM [inhibitor, partial curve, poor fit]
`CC(C)(C)CNC(=O)c1nc[nH]c1C(=O)N1CCOCC1` in the list: Potency: inconclusive: 100 µM [inhibitor, partial curve, poor fit]
